Tested on: MOLM-14 cells
Assay: Inhibitory concentrations (IC50, IC12.5) of kinase inhibitor panel for MOLM-14 cells
Assay type: cell-based
Conditions: Homo sapiens, concentration used for 48 h treatment

- IC50: 10 µM
SMILES: Cc1ccc(NC(=O)c2ccc(CN3CCN(C)CC3)cc2)cc1Nc1nccc(-c2cccnc2)n1 [imatinib]

— US10083341B2, “Cellular activity quantification using labeled probes” (Oregon Health & Science University, priority 2014, dated 2018)
